# Measurements reported in PubChem BioAssay AID1508597 (Cure First, 2020)
# Screen: 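Survival screen with siRNA in ovarian cancer cells derived from patients, with or without rucaparib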 (primary screen)
# System: human ovarian carcinoma lines grown from tumours: OCI-P5x (papillary serous) and OCI-C5x (clear cell)
# Knock-down reagent: siRNA pool against human genes, 1.25 pmol siRNA per well
# Duration: 72 h or 96 h, depending on the cell culture
# Conditions: rucaparib 20 µM (about IC30) or vehicle, present until read-out
# Rucaparib or vehicle: Rucaparib
# Cell line: OCI-C5x (clear cell)
# Measurement: 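Luminescent ATP-based viability assay read 72 or 96 h after transfection, depending on culture, given as normalised percent viability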
# Reading the numbers: viability, normalised: higher = more viable cells remaining
# Call rule: 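Active when normalised viability falls below 80 percent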
# Meaning of the calls: active = viability under 80%; inactive = viability 80% or more
# This is a random part of the about 2,100 reagents, under one of the conditions tested. 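Calls flag viability under 80% in either arm, not effects specific to rucaparib; the reference for percent is not stated.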 A reagent listed more than once was tested more than once; the source does not tell the runs apart. No sequences are given here. Not given: the 100% reference.
Gene,technical replicate,"viability, normalised (%)",outcome
"PCK2 (phosphoenolpyruvate carboxykinase 2, mitochondrial)",1,59.9,active
"PCK2 (phosphoenolpyruvate carboxykinase 2, mitochondrial)",2,57.1,active
"PCK2 (phosphoenolpyruvate carboxykinase 2, mitochondrial)",3,70.9,active
STK38 (serine/threonine kinase 38),1,57.3,active
STK38 (serine/threonine kinase 38),2,46.3,active
STK38 (serine/threonine kinase 38),3,64,active
BMPR2 (bone morphogenetic protein receptor type 2),1,62.6,active
BMPR2 (bone morphogenetic protein receptor type 2),2,53.8,active
BMPR2 (bone morphogenetic protein receptor type 2),3,52.1,active
APPL2,1,87.1,inactive
APPL2,2,63.5,active
APPL2,3,63.5,active
PDE1B (phosphodiesterase 1B),1,58.3,active
PDE1B (phosphodiesterase 1B),2,40.5,active
PDE1B (phosphodiesterase 1B),3,56.4,active
DAPK1 (death associated protein kinase 1),1,71.1,active
DAPK1 (death associated protein kinase 1),2,79.4,active
DAPK1 (death associated protein kinase 1),3,91.2,inactive
NTRK1 (neurotrophic receptor tyrosine kinase 1),1,44.4,active
NTRK1 (neurotrophic receptor tyrosine kinase 1),1,52.6,active
NTRK1 (neurotrophic receptor tyrosine kinase 1),1,58.1,active
NTRK1 (neurotrophic receptor tyrosine kinase 1),2,62.8,active
NTRK1 (neurotrophic receptor tyrosine kinase 1),2,52.2,active
NTRK1 (neurotrophic receptor tyrosine kinase 1),2,40.1,active
NTRK1 (neurotrophic receptor tyrosine kinase 1),3,43.7,active
NTRK1 (neurotrophic receptor tyrosine kinase 1),3,78.8,active
NTRK1 (neurotrophic receptor tyrosine kinase 1),3,34.7,active

Not a retest: 2 of the entries above.
Gene,technical replicate,"viability, normalised (%)",outcome
PDE1B (phosphodiesterase 1B),1,58.3,active
PDE1B (phosphodiesterase 1B),2,40.5,active
